Laboratory results from article PMC10693628, “Novel WYL domain-containing transcriptional activator acts in response to genotoxic stress in rapidly growing mycobacteria” (Communications Biology, 2023).

Assays:
[1] = target: T1, Sumo-SiwR (Mycobacterium smegmatis) (UniProt A0QS56); assay: EMSA; conditions: EMSA: 5 mM HEPES-KOH pH 7.0, 30 mM NaCl, 2.5% Ficoll 400K, 1% glycerol, 5 nM probe (10 nM in Fig. 2a legend), 37 °C 15 min; recombinant protein; protein details: His6-TEV-Sumo N-terminal fusion; label: 5'-FAM on strand 1
T1 sequence (looked up, limits assumed): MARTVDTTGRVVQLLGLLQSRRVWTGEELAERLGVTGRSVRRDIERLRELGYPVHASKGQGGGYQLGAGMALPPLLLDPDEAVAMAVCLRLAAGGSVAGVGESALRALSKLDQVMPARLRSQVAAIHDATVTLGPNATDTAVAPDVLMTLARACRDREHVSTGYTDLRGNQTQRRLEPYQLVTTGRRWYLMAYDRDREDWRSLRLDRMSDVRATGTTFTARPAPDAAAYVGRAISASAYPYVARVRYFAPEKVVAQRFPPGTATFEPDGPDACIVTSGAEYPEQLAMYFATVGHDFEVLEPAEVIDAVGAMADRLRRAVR

[2] = target: Sumo-SiwR ΔHTH (Mycobacterium smegmatis) (UniProt A0QS56); assay: EMSA; conditions: EMSA: 5 mM HEPES-KOH pH 7.0, 30 mM NaCl, 2.5% Ficoll 400K, 1% glycerol, 5 nM probe (10 nM in Fig. 2a legend), 37 °C 15 min; recombinant protein; protein details: His6-TEV-Sumo N-terminal fusion; label: 5'-FAM on strand 2

Question: Does “GACAGGCATAGCATGGCTTTCGCAAGGCTAAAGTGCGGCAGACTTGTCGC / GCGACAAGTCTGCCGCACTTTAGCCTTGCGAAAGCCATGCTATGCCTGT [scrambled palindrome]” bind [1]?
Answer: binds more weakly

Question: Does “TGACCCACCCTGACAGGCATATAGGACAGTTCCGGTCCTAAAAGTGCGGCAGACTTGTCG (double strand) [msmeg_1357-56 promoter]” bind [2]?
Answer: no binding

For at least one entry, the source does not settle the construct or the ends of the probe. For some assays here: Negatives hold for the conditions tested. For some assays here: A weaker result is weaker than the reference pair of the same experiment. For some assays here: Tags and fusion partners may be left off the protein sequences shown.
